Measurements reported in PubChem BioAssay AID1259254 (NCATS, 2017)
This is one part, drawn at random, of about 59,000 reagents tested. Over the whole deposit, about 1,550 (2.6%) were called active. 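G2 share is only a proxy for re-replication; each gene was hit by three separate siRNAs, and active genes were retested.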 Raw values vary from plate to plate and are shown uncorrected. The numbers tell different reagents against one gene apart. Not given: the amount of reagent.

- Assay: 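Genome-wide screen for genes that prevent DNA re-replication in cancer cells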 (primary screen)
- Cells: human HCT116 colorectal cancer cells
- Reagent: single siRNA against human genes
- Duration: 3 days
- Measurement: 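Nuclei stained with Hoechst and imaged; cell-cycle phase assigned by DNA content; G2 share scaled per plate, non-targeting siRNA 0%, GMNN siRNA 100%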
- Direction: G2 robust z-score and G2 cells, % of GMNN control: higher = more G2 cells, more excess DNA replication; raw share of cells in G2: higher = larger share of cells with G2 DNA content
- Rule for the call: 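Active siRNAs have a G2 robust z of 5 or more median absolute deviations over the median, which in these data means about 38% or higher of GMNN control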

| gene | reagent | G2 robust z-score | G2 cells, % of GMNN control | raw share of cells in G2 (%) | outcome |
| --- | --- | --- | --- | --- | --- |
| PGK2 | 1 | -1.04 | -4.34 | 4.18 | inactive |
| PGK2 | 2 | -0.582 | -1.13 | 5.03 | inactive |
| PGK2 | 3 | 0.462 | 6.22 | 6.22 | inactive |
| CCDC116 | 1 | -0.634 | -1.49 | 2.29 | inactive |
| CCDC116 | 2 | 1.34 | 12.4 | 8.05 | inactive |
| CCDC116 | 3 | -0.851 | -3.02 | 1.95 | inactive |
| FBXW11 | 1 | 2.88 | 23.2 | 15.7 | inactive |
| FBXW11 | 2 | -0.319 | 0.725 | 4.4 | inactive |
| FBXW11 | 3 | 0.561 | 6.91 | 6.23 | inactive |
| LCN10 | 1 | 0.235 | 4.62 | 5.97 | inactive |
| LCN10 | 2 | 3.06 | 24.5 | 16.5 | inactive |
| LCN10 | 3 | -0.224 | 1.39 | 5.5 | inactive |
| MS4A4E | 1 | 0.714 | 7.99 | 6.68 | inactive |
| MS4A4E | 2 | 2.54 | 20.8 | 10.8 | inactive |
| MS4A4E | 3 | -0.136 | 2.01 | 3.73 | inactive |
| ASB11 | 1 | 0.96 | 9.72 | 6.1 | inactive |
| ASB11 | 2 | -0.925 | -3.54 | 2.84 | inactive |
| ASB11 | 3 | -0.635 | -1.5 | 2.63 | inactive |

No new results follow: an excerpt of the list.
| gene | reagent | G2 robust z-score | G2 cells, % of GMNN control | raw share of cells in G2 (%) | outcome |
| --- | --- | --- | --- | --- | --- |
| LCN10 | 2 | 3.06 | 24.5 | 16.5 | inactive |
| LCN10 | 3 | -0.224 | 1.39 | 5.5 | inactive |
| MS4A4E | 1 | 0.714 | 7.99 | 6.68 | inactive |
| MS4A4E | 2 | 2.54 | 20.8 | 10.8 | inactive |

The list goes on:
| gene | reagent | G2 robust z-score | G2 cells, % of GMNN control | raw share of cells in G2 (%) | outcome |
| --- | --- | --- | --- | --- | --- |
| LINC03034 | 1 | -0.811 | -2.74 | 2.64 | inactive |
| LINC03034 | 2 | 1.16 | 11.2 | 7.36 | inactive |
| LINC03034 | 3 | -1.01 | -4.17 | 2 | inactive |
| OR4K17 | 1 | -0.797 | -2.64 | 2.87 | inactive |
| OR4K17 | 2 | -0.00572 | 2.93 | 4.68 | inactive |
| OR4K17 | 3 | -0.544 | -0.862 | 4.26 | inactive |
| HDAC1 | 1 | -0.485 | -0.444 | 4.04 | inactive |
| HDAC1 | 2 | 5.84 | 44.1 | 21.1 | active |
| HDAC1 | 3 | 1.94 | 16.6 | 12 | inactive |
| ESPL1 | 1 | 11.1 | 81 | 30.9 | active |
| ESPL1 | 2 | 10.5 | 77 | 34.3 | active |
| ESPL1 | 3 | 16.3 | 118 | 52.5 | active |
